# Measured values as given in the supplement of paper PMC12067093, “Discovery and optimisation of a covalent ligand for TRIM25 and its application to targeted protein ubiquitination” (Chemical Science, 2025).
# Chains of the proteins cited; added tags and fusions are not shown. Lines headed by an entry give the natural chain unless they say otherwise; changes in a name come on top.
# UniProt P55263: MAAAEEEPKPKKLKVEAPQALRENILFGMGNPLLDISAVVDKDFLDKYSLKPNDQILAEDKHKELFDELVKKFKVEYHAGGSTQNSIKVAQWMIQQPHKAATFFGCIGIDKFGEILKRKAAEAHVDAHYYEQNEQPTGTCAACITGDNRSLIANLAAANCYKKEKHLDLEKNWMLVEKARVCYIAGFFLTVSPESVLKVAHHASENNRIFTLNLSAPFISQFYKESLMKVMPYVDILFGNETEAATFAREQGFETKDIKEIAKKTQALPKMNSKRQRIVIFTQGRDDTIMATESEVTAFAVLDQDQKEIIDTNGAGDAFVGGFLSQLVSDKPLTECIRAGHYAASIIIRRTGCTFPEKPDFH
# UniProt O00154: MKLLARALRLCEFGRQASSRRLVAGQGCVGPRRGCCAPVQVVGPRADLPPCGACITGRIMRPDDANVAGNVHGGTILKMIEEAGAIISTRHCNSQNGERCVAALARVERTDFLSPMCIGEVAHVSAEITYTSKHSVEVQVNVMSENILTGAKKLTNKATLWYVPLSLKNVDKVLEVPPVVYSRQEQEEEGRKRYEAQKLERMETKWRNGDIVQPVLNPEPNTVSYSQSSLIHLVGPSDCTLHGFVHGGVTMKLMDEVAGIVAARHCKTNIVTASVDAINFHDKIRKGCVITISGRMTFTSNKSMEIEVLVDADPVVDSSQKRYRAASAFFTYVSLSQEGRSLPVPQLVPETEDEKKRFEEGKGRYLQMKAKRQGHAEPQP
# UniProt P33121: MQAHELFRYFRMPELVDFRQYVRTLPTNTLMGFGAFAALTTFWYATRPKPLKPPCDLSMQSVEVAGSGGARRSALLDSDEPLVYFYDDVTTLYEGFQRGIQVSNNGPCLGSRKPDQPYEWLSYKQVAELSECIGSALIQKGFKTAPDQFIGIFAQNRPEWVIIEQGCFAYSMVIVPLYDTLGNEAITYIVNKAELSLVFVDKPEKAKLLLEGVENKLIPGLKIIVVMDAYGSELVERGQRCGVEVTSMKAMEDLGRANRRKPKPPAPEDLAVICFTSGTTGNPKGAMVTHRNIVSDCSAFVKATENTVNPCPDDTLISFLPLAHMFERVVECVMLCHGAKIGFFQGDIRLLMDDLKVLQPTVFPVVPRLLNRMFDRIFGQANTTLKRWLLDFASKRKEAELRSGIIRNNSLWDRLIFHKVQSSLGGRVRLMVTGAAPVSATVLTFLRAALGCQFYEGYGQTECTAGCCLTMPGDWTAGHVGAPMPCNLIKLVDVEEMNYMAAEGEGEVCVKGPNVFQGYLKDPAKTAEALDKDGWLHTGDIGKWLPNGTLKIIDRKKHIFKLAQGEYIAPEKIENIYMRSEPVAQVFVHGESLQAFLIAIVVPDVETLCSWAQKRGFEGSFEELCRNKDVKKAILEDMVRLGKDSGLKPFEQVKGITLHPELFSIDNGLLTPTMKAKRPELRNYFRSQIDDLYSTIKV
# UniProt Q9Y305: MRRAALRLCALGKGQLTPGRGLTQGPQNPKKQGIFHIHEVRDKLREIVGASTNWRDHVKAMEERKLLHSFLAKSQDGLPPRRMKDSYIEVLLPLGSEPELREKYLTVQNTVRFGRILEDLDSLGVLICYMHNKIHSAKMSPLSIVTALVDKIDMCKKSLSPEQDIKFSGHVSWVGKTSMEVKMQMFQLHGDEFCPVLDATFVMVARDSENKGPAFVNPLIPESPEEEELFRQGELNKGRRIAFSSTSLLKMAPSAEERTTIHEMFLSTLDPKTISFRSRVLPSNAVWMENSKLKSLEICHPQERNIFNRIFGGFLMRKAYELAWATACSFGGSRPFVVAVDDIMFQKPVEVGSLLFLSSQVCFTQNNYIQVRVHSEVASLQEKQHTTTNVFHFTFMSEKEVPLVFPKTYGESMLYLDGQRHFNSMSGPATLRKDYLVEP
# UniProt P24666: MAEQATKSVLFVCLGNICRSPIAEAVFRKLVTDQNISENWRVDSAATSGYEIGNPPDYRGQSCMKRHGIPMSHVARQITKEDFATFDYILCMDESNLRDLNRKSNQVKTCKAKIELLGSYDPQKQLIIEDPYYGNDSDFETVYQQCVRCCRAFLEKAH
# UniProt Q13443: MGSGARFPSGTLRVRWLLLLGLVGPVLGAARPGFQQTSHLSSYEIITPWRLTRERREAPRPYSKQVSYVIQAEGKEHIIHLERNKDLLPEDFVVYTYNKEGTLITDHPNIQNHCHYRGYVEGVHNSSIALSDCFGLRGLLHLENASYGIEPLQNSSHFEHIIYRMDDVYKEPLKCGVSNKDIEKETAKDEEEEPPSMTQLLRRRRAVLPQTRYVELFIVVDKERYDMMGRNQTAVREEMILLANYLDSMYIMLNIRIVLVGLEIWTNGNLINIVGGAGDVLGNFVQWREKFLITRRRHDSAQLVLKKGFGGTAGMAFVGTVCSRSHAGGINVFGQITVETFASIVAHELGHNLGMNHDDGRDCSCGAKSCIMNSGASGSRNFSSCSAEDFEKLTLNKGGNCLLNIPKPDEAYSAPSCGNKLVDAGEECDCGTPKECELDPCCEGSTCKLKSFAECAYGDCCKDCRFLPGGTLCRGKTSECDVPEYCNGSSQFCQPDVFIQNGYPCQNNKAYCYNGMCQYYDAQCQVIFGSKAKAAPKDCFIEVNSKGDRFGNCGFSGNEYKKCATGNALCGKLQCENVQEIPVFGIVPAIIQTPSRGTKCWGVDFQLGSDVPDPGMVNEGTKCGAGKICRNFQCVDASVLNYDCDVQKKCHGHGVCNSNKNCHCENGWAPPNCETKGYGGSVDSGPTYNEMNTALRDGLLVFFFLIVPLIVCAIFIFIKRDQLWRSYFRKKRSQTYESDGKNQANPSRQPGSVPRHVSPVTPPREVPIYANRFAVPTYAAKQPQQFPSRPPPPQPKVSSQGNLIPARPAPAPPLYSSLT
# UniProt Q9NR19, whole entry, looked up: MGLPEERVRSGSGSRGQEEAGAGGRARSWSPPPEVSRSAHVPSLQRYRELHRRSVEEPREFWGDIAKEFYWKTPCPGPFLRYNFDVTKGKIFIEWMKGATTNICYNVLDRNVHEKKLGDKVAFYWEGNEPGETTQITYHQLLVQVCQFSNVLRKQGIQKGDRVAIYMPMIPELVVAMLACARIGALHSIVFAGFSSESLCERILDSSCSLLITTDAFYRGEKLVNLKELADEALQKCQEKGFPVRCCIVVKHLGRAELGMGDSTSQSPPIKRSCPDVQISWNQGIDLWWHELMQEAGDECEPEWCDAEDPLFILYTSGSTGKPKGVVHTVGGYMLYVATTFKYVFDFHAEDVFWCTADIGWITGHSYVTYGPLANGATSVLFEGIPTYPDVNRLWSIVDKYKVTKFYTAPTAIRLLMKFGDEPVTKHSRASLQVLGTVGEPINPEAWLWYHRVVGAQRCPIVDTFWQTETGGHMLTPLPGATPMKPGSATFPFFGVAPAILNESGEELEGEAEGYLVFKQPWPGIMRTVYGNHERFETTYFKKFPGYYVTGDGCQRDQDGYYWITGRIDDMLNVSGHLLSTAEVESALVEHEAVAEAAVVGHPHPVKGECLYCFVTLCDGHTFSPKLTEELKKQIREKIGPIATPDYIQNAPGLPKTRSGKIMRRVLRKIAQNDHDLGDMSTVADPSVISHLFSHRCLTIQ
# UniProt Q03154: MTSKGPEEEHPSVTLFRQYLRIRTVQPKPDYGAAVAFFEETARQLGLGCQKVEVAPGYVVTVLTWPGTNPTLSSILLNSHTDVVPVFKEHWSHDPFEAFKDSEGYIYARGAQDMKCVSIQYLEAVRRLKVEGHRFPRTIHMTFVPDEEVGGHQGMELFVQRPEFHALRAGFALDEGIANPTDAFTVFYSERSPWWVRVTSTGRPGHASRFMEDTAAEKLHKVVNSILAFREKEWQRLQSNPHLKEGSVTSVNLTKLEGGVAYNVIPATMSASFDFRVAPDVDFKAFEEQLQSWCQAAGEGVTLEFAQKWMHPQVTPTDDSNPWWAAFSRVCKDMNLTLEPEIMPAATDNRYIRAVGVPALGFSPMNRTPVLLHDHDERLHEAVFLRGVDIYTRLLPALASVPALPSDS
# UniProt P35573: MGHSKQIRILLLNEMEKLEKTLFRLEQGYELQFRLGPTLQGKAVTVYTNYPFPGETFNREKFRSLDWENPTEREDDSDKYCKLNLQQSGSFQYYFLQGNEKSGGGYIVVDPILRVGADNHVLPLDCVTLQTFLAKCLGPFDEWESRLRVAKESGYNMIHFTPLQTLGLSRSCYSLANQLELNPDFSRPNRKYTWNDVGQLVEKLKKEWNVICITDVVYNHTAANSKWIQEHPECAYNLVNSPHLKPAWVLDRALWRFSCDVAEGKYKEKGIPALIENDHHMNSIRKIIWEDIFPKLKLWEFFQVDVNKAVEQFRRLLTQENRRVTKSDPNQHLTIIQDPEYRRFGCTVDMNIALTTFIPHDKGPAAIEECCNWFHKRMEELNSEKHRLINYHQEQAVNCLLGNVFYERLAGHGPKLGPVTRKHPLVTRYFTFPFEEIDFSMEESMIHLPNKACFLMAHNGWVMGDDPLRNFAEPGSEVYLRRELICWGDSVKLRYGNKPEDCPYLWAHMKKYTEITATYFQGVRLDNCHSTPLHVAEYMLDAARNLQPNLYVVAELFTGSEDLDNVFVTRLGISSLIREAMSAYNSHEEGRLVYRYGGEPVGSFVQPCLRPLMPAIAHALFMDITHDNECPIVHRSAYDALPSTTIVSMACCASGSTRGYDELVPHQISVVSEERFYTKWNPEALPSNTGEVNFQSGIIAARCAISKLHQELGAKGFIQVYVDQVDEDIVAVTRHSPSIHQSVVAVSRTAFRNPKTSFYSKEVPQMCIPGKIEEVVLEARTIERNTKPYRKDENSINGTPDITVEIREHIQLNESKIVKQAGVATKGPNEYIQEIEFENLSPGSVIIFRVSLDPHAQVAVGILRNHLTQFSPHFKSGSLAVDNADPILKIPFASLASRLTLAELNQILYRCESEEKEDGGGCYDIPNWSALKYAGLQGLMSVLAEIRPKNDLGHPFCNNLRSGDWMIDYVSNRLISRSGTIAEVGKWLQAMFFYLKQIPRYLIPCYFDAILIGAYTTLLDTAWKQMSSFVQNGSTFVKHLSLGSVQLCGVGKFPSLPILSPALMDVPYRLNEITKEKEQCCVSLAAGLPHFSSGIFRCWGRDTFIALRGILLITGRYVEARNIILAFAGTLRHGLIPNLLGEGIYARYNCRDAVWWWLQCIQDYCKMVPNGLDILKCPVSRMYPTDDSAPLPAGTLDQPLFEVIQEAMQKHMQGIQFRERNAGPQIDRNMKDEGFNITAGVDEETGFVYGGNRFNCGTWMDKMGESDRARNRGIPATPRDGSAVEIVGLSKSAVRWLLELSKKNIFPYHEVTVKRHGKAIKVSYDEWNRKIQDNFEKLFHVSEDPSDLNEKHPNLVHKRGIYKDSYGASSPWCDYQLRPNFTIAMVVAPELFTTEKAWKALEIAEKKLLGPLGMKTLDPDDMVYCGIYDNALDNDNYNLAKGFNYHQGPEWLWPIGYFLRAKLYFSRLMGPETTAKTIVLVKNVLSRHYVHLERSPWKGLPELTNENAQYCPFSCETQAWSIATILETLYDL
# UniProt P11766: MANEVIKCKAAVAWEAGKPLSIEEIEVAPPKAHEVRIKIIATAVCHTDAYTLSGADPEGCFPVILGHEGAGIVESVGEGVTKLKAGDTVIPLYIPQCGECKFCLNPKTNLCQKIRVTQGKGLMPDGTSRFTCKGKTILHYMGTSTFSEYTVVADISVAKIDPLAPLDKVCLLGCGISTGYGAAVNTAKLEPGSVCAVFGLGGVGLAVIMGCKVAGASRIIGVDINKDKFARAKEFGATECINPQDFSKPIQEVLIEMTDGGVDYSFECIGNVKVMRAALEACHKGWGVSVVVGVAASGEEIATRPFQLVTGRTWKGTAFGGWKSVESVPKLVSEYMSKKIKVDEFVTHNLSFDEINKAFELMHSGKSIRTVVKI
# UniProt O95573: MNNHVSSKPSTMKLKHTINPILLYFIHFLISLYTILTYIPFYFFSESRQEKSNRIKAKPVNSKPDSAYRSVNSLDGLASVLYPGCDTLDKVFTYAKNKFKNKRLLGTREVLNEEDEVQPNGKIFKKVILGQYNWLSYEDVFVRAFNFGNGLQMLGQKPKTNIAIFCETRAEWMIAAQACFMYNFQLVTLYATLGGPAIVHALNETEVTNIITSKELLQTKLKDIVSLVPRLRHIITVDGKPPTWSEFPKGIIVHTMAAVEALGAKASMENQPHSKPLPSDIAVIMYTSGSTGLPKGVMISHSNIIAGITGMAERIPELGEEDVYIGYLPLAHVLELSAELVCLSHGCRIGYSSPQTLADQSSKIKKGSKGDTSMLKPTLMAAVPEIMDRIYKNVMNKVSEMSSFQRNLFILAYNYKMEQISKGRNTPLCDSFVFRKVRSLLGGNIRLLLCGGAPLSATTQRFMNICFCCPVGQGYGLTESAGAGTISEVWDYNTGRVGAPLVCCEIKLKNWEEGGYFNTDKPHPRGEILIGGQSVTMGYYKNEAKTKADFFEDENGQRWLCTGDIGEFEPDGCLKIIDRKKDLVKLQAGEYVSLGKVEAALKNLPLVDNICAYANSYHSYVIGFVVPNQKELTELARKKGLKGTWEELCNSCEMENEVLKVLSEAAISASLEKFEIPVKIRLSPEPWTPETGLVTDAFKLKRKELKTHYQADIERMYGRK
# The other results are listed elsewhere or left out.
# Compound: CC1Cc2ccccc2N1C(=O)C1CCCN(C1)C(=O)CCl (mixture of isomers) [TRIM25 ligand 11 (diastereomer mixture)]
# Experiment: probe-labelled cysteine peptide fold change vs DMSO (competition) (log2 fold change); higher = less target engagement (more negative = stronger competition)
# Conditions: THP-1, incubation time: 4 h
# 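Further: competitive chemoproteomic profiling in live THP-1 cells with an iodoacetamide desthiobiotin (IA-DTB) probe, comparing probe-labelled peptide intensities in compound-treated cells against DMSO-treated controls.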
Target,probe-labelled cysteine peptide fold change (10 µM),probe-labelled cysteine peptide fold change (50 µM)
ADK_P55263_160_SLIANLAAANCYK (UniProt P55263),-0.0721,-0.0931
ADSS_P30520_58_VVDLLAQDADIVCR (UniProt P30520),-0.034,0.0558
ACOT7_O00154_288_GCVITISGR (UniProt O00154),-0.0136,0.137
ACSL1_P33121_625_GFEGSFEELCR (UniProt P33121),0.0407,0.0266
ADD2_P35612_177_GVSCSEVTASSLIK (UniProt P35612),-0.0274,-0.0547
ACOT9_Q9Y305_299_SLEICHPQER (UniProt Q9Y305),0.108,0.0885
AFG3L2_Q9Y4W6_402_KNAPCILFIDEIDAVGR (UniProt Q9Y4W6),-0.215,-0.188
ACTN1_P12814_476_CQKICDQWDNLGALTQKRR (UniProt P12814),0.0927,0.274
ACP1_P24666_91_EDFATFDYILCMDESNLR (UniProt P24666),-0.151,-0.0255
ADAM9_Q13443_575_LQCENVQEIPVFGIVPAIIQTPSR (UniProt Q13443),0.334,-0.0231
ACSS2_Q9NR19_246_CCIVVK (UniProt Q9NR19),-0.0131,0.0829
ACSL1_P33121_274_RKPKPPAPEDLAVICFTSGTTGNPK (UniProt P33121),-0.0396,0.0816
ACOT7_O00154_92_HCNSQNGER (UniProt O00154),0.0791,-0.075
ACY1_Q03154_49_QLGLGCQK (UniProt Q03154),0.0526,0.164
ADGRA2_Q96PE1_194+196_VVDLGTEFLTCDCHLR (UniProt Q96PE1),0.081,0.204
AGL_P35573_172_SCYSLANQLELNPDFSRPNRK (UniProt P35573),0.0913,0.196
ACTR3_P61158_408_DYEEIGPSICR (UniProt P61158),-0.00209,0.067
ACTR3_P61158_12_LPACVVDCGTGYTK (UniProt P61158),-0.0727,-0.0621
ADAM15_Q13444_409_ALLDGMGSCLFER (UniProt Q13444),-0.145,0.146
AGA_P20933_64_ALASGGSALDAVESGCAMCER (UniProt P20933),-0.018,0.0586
ADNP_Q9H2P0_452_ICTICNELFPENVYSVHFEK (UniProt Q9H2P0),0.0857,-0.204
ADH5_P11766_103_FCLNPK (UniProt P11766),-0.0585,-0.0326
ACOT9_Q9Y305_194_MQMFQLHGDEFCPVLDATFVMVAR (UniProt Q9Y305),-0.0142,-0.131
ADK_P55263_353_TGCTFPEKPDFH (UniProt P55263),0.0948,0.0385
ADAR_P55265_392_RNAEFLTCNIPTSNASNNMVTTEK (UniProt P55265),-0.033,-0.237
AGL_P35573_212_EWNVICITDVVYNHTAANSK (UniProt P35573),0.0724,0.114
ACSL3_O95573_503_VGAPLVCCEIK (UniProt O95573),0.154,0.0586
ACTR10_Q9NZ32_215_TCFVSDLKR (UniProt Q9NZ32),-0.113,0.00991
ACSL3_O95573_85_SVNSLDGLASVLYPGCDTLDK (UniProt O95573),0.108,0.0746

# Two entries picked at random from those above, as already listed:
Target,probe-labelled cysteine peptide fold change (10 µM),probe-labelled cysteine peptide fold change (50 µM)
ACSS2_Q9NR19_246_CCIVVK (UniProt Q9NR19),-0.0131,0.0829
ACP1_P24666_91_EDFATFDYILCMDESNLR (UniProt P24666),-0.151,-0.0255
